{
  "sequences": {"note": "Protein sequences, listed by entry. Tags and fused reporters are not part of them. Lines headed by an entry give the natural chain unless they say otherwise; changes in a name come on top.", "UniProt P51957": "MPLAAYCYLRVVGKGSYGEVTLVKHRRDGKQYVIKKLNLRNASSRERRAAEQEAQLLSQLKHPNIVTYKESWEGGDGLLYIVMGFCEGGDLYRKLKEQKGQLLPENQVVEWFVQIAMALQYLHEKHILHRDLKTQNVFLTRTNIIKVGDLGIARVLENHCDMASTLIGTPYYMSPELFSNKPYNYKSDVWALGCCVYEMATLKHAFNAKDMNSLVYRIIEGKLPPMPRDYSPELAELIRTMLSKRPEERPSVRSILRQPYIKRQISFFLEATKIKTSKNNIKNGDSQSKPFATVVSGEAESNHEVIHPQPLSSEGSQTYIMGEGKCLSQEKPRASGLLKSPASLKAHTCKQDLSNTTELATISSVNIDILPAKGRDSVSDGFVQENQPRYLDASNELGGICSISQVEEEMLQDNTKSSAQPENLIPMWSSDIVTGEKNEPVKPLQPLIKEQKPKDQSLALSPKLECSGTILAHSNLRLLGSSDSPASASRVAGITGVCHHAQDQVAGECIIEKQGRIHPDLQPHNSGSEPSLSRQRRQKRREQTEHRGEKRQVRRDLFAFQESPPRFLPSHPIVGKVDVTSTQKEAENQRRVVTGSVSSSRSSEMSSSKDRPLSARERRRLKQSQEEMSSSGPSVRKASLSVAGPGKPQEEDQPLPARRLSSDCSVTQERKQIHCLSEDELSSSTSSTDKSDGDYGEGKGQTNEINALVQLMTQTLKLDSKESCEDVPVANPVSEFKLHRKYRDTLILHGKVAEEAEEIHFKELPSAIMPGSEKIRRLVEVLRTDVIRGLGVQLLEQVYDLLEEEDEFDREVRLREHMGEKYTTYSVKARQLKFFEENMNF", "UniProt Q96BN8, whole entry": "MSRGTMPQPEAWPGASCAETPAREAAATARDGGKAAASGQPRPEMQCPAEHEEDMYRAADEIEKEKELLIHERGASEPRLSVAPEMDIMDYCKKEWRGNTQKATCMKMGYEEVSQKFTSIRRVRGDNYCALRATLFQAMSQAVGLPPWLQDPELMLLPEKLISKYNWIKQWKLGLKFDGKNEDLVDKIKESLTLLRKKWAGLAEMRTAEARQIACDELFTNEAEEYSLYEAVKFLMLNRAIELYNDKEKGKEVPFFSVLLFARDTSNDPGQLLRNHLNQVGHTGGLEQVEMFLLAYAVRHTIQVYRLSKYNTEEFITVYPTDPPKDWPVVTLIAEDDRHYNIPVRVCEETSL", "UniProt Q8N5F7": "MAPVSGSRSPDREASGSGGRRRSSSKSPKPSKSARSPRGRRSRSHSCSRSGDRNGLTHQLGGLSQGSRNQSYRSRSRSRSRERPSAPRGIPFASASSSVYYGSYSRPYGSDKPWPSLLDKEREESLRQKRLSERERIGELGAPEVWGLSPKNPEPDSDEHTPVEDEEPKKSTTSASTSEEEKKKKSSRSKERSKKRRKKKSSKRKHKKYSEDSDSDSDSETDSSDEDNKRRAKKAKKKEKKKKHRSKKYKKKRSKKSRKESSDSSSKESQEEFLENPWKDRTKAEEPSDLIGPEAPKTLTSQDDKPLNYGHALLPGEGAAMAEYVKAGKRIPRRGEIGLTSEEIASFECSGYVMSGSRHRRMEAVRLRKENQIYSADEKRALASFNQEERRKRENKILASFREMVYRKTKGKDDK", "UniProt Q9Y314": "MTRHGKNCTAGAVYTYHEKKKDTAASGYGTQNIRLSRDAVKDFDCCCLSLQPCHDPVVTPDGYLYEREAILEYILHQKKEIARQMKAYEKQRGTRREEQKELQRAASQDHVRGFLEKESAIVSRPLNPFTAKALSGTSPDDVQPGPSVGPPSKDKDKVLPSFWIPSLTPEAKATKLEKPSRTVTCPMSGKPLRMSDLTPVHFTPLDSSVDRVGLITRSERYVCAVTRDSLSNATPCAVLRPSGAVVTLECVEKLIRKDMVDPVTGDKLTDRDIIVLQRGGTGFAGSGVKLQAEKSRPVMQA", "UniProt Q9BYG5": "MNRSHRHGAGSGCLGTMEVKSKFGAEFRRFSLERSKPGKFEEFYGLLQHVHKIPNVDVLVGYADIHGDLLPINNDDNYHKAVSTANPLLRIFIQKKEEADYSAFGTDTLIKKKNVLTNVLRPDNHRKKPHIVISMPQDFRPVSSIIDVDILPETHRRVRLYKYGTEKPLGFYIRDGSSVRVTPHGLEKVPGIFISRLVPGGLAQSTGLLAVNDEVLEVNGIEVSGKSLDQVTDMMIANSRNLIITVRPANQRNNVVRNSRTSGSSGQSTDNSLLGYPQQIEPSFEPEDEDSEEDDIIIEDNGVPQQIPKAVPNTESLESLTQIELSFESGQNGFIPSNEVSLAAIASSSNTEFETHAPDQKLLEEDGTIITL", "UniProt P61970, whole entry": "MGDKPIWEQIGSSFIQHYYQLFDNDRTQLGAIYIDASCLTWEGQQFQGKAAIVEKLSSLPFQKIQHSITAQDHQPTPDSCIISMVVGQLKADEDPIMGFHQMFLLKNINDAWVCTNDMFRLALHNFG", "UniProt Q9Y5N5": "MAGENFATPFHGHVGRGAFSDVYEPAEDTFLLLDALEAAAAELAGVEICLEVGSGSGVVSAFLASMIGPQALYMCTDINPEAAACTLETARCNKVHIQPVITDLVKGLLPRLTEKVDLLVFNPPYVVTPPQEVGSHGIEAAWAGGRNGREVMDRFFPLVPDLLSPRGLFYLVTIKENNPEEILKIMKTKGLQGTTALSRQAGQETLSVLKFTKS", "UniProt Q96CV9, whole entry": "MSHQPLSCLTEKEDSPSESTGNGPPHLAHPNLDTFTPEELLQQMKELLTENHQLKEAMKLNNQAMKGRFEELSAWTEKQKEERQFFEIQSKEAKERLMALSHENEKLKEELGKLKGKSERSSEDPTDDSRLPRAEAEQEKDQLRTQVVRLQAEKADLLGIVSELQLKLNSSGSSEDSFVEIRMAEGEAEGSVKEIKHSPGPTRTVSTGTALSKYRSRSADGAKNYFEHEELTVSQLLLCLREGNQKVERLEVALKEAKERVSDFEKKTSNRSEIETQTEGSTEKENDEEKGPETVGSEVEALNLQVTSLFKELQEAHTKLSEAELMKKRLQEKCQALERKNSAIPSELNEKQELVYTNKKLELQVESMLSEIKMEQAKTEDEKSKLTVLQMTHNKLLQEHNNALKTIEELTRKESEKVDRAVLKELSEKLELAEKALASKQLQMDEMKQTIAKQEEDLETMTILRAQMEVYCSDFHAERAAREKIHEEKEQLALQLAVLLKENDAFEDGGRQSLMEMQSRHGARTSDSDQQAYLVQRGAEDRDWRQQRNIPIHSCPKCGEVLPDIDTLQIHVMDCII", "UniProt Q9UKX7": "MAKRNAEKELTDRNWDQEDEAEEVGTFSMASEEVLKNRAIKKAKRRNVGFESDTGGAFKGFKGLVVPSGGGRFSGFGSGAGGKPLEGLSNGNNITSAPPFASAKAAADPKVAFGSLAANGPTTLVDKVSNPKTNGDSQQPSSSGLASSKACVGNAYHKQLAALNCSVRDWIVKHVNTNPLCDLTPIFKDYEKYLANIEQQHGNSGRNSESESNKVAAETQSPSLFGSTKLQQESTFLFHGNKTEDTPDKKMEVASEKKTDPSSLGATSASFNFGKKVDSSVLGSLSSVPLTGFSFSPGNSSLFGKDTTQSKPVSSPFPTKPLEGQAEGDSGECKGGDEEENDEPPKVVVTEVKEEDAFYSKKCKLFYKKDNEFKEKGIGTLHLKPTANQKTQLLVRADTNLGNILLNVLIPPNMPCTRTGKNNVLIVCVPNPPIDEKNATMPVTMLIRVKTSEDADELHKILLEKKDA", "UniProt Q96PY6": "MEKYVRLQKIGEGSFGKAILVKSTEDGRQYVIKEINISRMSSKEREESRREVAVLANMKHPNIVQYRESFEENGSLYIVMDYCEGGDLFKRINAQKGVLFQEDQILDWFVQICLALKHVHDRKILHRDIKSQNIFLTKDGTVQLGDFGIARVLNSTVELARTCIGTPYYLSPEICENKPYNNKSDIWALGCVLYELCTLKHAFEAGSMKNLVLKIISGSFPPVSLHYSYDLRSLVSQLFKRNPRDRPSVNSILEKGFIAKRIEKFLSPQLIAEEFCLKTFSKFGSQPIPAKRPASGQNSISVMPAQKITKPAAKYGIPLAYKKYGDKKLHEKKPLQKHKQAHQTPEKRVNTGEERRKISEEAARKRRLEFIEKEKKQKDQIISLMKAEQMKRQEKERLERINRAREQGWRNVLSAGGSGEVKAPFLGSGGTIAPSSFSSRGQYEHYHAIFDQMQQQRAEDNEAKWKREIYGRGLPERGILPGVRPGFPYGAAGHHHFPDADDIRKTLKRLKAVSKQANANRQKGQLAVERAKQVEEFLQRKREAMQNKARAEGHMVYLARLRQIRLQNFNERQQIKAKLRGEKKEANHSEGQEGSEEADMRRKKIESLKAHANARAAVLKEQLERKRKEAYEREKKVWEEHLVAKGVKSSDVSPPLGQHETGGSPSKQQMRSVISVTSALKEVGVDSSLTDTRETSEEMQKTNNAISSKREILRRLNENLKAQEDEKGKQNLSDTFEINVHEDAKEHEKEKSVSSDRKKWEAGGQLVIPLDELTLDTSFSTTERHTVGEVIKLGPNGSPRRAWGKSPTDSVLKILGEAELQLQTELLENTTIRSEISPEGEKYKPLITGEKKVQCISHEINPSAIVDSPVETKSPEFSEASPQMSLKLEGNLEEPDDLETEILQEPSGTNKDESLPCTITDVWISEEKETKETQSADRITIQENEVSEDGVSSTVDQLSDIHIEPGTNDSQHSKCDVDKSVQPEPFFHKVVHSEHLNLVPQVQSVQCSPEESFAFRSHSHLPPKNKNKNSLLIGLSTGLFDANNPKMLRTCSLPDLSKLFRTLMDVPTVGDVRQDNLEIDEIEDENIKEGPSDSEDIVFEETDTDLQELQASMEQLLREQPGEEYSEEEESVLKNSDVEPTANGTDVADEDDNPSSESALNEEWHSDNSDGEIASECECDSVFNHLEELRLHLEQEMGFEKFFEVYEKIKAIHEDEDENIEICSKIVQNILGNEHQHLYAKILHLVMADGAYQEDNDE", "UniProt Q86WQ0": "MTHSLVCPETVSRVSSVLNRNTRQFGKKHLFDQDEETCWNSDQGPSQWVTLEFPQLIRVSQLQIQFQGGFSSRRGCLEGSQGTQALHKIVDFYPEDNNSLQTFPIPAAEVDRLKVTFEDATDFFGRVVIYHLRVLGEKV", "UniProt Q9NWQ8": "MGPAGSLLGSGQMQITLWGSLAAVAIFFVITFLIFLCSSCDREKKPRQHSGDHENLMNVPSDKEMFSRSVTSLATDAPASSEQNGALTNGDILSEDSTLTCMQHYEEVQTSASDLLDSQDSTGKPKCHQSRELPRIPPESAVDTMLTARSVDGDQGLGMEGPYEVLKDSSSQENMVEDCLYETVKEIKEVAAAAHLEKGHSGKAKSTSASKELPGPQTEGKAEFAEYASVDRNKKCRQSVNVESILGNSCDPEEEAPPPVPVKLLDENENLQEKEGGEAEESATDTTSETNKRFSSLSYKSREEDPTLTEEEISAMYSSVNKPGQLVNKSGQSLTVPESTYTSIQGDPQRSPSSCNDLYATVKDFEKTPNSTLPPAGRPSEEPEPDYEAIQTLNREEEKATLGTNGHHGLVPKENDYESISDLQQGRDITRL", "UniProt Q86W56": "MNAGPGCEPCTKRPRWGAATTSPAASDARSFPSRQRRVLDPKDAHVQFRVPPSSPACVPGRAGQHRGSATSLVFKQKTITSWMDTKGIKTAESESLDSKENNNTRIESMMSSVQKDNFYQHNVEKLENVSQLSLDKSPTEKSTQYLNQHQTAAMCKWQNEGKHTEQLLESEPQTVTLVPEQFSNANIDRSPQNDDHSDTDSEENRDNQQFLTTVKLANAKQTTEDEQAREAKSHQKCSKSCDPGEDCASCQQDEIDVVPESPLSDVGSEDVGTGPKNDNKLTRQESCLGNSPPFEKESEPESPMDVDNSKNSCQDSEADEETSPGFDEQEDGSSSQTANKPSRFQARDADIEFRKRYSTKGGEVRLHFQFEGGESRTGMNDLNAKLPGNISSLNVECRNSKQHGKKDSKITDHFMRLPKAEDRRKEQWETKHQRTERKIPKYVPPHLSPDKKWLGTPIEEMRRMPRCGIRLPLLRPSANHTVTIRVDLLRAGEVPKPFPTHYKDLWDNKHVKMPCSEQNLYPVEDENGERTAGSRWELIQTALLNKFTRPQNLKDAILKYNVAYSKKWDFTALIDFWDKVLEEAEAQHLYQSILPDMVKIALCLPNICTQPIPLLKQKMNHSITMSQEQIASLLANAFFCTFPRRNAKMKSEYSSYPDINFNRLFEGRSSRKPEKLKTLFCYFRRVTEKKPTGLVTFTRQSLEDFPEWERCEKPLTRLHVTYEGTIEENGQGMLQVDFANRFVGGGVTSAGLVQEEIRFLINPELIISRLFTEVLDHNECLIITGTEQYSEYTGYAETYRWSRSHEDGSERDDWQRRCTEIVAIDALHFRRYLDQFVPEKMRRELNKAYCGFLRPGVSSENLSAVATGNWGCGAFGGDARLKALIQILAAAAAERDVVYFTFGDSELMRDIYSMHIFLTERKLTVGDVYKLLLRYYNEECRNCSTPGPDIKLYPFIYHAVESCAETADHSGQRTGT"},
  "source": "the supplement of paper PMC7666118",
  "note": "Some of the results follow.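 Rule for the calls: active = dose-dependent thermal stabilisation significant by F-test of dose-response against flat model at 10% FDR; inactive = not significant.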",
  "data": [
    {"compound": "Nc1nc2c(ncn2[C@@H]2O[C@H](COP(=O)(O)OP(=O)(O)OP(=O)(O)O)[C@@H](O)[C@H]2O)c(=O)[nH]1", "experiment": "dose-dependent thermal stabilisation call (2D-TPP, DLPTP, 10% FDR) (binary (1 = stabilised)); higher = stabilised by the compound", "conditions": "system: Jurkat gel-filtered lysate; concentration range 1-500 µM", "procedure": "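2D thermal proteome profiling in gel-filtered Jurkat E6.1 lysate (2 mg/ml) treated with NaGTP (0, 1, 10, 100, 500 uM) for 10 min at room temperature, then heated 3 min at one of 12 temperatures (42-63.9 C). Soluble protein was quantified by TMT10 MS. The value is the DLPTP call of the paper: dose-dependent thermal stabilisation over all temperatures at 10% FDR (F-test of a dose-response against a flat model); one experiment, one call per tested protein.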", "values": [
      {"target": "NPAT (UniProt Q14207)", "dose-dependent thermal stabilisation call": "inactive: 0"},
      {"target": "NAGK (UniProt Q9UJ70)", "dose-dependent thermal stabilisation call": "inactive: 0"},
      {"target": "NFRKB (UniProt Q6P4R8)", "dose-dependent thermal stabilisation call": "inactive: 0"},
      {"target": "NAMPT (UniProt P43490)", "dose-dependent thermal stabilisation call": "active: 1"},
      {"target": "NEK4 (UniProt P51957)", "dose-dependent thermal stabilisation call": "inactive: 0"},
      {"target": "OTULIN (UniProt Q96BN8)", "dose-dependent thermal stabilisation call": "inactive: 0"},
      {"target": "NUP62 (UniProt P37198)", "dose-dependent thermal stabilisation call": "inactive: 0"},
      {"target": "NKAP (UniProt Q8N5F7)", "dose-dependent thermal stabilisation call": "inactive: 0"},
      {"target": "NCAPD3 (UniProt P42695)", "dose-dependent thermal stabilisation call": "active: 1"},
      {"target": "NOSIP (UniProt Q9Y314)", "dose-dependent thermal stabilisation call": "inactive: 0"},
      {"target": "PARD6B (UniProt Q9BYG5)", "dose-dependent thermal stabilisation call": "active: 1"},
      {"target": "NECTIN1 (UniProt Q15223)", "dose-dependent thermal stabilisation call": "inactive: 0"},
      {"target": "NEK9 (UniProt Q8TD19)", "dose-dependent thermal stabilisation call": "inactive: 0"},
      {"target": "NOL11 (UniProt Q9H8H0)", "dose-dependent thermal stabilisation call": "inactive: 0"},
      {"target": "NKTR (UniProt P30414)", "dose-dependent thermal stabilisation call": "inactive: 0"},
      {"target": "NCOR2 (UniProt Q9Y618)", "dose-dependent thermal stabilisation call": "inactive: 0"},
      {"target": "NPLOC4 (UniProt Q8TAT6)", "dose-dependent thermal stabilisation call": "inactive: 0"},
      {"target": "NUTF2 (UniProt P61970)", "dose-dependent thermal stabilisation call": "inactive: 0"},
      {"target": "N6AMT1 (UniProt Q9Y5N5)", "dose-dependent thermal stabilisation call": "active: 1"},
      {"target": "NELFE (UniProt P18615)", "dose-dependent thermal stabilisation call": "inactive: 0"},
      {"target": "PABPC1 (UniProt P11940)", "dose-dependent thermal stabilisation call": "inactive: 0"},
      {"target": "OPTN (UniProt Q96CV9)", "dose-dependent thermal stabilisation call": "inactive: 0"},
      {"target": "NUP50 (UniProt Q9UKX7)", "dose-dependent thermal stabilisation call": "inactive: 0"},
      {"target": "NAPRT (UniProt Q6XQN6)", "dose-dependent thermal stabilisation call": "active: 1"},
      {"target": "PAF1 (UniProt Q8N7H5)", "dose-dependent thermal stabilisation call": "inactive: 0"},
      {"target": "NDUFV2 (UniProt P19404)", "dose-dependent thermal stabilisation call": "inactive: 0"},
      {"target": "NEK1 (UniProt Q96PY6)", "dose-dependent thermal stabilisation call": "inactive: 0"},
      {"target": "NR2C2AP (UniProt Q86WQ0)", "dose-dependent thermal stabilisation call": "inactive: 0"},
      {"target": "NOTCH1 (UniProt P46531)", "dose-dependent thermal stabilisation call": "inactive: 0"},
      {"target": "PAG1 (UniProt Q9NWQ8)", "dose-dependent thermal stabilisation call": "inactive: 0"},
      {"target": "NUDT9 (UniProt Q9BW91)", "dose-dependent thermal stabilisation call": "inactive: 0"},
      {"target": "NCAPD2 (UniProt Q15021)", "dose-dependent thermal stabilisation call": "inactive: 0"},
      {"target": "NECAP1 (UniProt Q8NC96)", "dose-dependent thermal stabilisation call": "inactive: 0"},
      {"target": "PARG (UniProt Q86W56)", "dose-dependent thermal stabilisation call": "inactive: 0"},
      {"target": "NARFL (UniProt Q9H6Q4)", "dose-dependent thermal stabilisation call": "active: 1"},
      {"target": "NFIC (UniProt P08651)", "dose-dependent thermal stabilisation call": "inactive: 0"},
      {"target": "NRBF2 (UniProt Q96F24)", "dose-dependent thermal stabilisation call": "inactive: 0"},
      {"target": "NOP14 (UniProt P78316)", "dose-dependent thermal stabilisation call": "inactive: 0"},
      {"target": "NSL1 (UniProt Q96IY1)", "dose-dependent thermal stabilisation call": "inactive: 0"},
      {"target": "PARP4 (UniProt Q9UKK3)", "dose-dependent thermal stabilisation call": "inactive: 0"}
    ]}
  ]
}
